Assay results from the supplement of paper PMC12819154, “High-throughput peptide-centric local stability assay extends protein–ligand identification to membrane proteins, tissues and bacteria” (Nature Structural & Molecular Biology, 2025).
This is one part of the list. Most entries show no effect beyond the scatter of the controls.

Chains of the proteins cited; added tags and fusions are not shown. Lines headed by an entry give the natural chain unless they say otherwise; changes in a name come on top.
UniProt Q6P8I6: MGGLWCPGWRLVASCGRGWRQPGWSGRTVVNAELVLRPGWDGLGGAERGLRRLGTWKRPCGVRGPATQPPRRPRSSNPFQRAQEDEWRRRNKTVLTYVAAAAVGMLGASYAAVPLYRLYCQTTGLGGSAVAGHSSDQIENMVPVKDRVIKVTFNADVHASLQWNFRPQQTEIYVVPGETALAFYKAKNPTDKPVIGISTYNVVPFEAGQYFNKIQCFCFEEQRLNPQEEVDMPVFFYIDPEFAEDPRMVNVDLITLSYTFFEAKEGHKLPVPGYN
UniProt Q6PD24: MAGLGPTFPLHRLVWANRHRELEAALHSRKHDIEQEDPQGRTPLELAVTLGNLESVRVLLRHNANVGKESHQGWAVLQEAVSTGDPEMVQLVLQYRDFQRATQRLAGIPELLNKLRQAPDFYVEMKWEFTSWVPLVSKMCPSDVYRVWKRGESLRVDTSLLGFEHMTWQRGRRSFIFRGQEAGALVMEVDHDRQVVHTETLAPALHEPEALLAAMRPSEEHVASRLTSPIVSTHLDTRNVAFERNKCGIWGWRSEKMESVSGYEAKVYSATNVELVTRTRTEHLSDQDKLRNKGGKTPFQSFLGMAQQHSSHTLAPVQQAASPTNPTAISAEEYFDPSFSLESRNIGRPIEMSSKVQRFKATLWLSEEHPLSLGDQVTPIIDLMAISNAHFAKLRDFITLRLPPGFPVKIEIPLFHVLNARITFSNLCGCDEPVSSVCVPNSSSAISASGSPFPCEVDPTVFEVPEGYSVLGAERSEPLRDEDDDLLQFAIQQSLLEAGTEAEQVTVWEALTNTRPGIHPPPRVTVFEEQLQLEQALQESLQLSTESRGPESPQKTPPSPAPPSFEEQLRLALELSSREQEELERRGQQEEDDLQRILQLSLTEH
UniProt Q6P1G0: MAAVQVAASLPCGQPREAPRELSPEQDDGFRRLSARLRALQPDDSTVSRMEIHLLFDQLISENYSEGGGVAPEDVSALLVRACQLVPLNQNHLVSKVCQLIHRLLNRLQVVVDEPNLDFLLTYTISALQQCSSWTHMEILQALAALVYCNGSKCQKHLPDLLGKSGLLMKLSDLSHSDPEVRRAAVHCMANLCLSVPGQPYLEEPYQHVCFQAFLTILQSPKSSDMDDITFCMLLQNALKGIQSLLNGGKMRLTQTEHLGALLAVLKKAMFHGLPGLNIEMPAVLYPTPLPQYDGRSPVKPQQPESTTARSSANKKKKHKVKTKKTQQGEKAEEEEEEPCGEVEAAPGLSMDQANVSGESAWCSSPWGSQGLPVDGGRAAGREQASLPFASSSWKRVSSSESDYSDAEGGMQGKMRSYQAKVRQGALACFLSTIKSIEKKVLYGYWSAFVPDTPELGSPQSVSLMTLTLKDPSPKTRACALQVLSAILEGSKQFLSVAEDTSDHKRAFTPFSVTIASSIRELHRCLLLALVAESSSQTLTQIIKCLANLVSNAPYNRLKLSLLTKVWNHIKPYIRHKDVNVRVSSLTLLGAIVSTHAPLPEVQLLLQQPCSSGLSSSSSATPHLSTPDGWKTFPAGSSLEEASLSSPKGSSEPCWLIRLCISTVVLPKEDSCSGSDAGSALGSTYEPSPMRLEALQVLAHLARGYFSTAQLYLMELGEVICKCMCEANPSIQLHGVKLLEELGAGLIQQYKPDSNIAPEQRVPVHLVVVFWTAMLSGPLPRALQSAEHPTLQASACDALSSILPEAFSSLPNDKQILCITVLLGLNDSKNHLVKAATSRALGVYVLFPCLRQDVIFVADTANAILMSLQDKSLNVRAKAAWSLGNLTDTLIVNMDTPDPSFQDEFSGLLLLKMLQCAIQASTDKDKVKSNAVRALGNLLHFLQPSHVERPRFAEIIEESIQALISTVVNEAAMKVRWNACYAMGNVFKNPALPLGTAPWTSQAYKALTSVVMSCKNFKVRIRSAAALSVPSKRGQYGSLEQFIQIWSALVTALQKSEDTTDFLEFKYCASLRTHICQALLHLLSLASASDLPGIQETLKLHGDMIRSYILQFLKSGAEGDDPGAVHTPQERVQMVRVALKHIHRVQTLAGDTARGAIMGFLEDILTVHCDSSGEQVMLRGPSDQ
UniProt Q6PIJ4, whole entry: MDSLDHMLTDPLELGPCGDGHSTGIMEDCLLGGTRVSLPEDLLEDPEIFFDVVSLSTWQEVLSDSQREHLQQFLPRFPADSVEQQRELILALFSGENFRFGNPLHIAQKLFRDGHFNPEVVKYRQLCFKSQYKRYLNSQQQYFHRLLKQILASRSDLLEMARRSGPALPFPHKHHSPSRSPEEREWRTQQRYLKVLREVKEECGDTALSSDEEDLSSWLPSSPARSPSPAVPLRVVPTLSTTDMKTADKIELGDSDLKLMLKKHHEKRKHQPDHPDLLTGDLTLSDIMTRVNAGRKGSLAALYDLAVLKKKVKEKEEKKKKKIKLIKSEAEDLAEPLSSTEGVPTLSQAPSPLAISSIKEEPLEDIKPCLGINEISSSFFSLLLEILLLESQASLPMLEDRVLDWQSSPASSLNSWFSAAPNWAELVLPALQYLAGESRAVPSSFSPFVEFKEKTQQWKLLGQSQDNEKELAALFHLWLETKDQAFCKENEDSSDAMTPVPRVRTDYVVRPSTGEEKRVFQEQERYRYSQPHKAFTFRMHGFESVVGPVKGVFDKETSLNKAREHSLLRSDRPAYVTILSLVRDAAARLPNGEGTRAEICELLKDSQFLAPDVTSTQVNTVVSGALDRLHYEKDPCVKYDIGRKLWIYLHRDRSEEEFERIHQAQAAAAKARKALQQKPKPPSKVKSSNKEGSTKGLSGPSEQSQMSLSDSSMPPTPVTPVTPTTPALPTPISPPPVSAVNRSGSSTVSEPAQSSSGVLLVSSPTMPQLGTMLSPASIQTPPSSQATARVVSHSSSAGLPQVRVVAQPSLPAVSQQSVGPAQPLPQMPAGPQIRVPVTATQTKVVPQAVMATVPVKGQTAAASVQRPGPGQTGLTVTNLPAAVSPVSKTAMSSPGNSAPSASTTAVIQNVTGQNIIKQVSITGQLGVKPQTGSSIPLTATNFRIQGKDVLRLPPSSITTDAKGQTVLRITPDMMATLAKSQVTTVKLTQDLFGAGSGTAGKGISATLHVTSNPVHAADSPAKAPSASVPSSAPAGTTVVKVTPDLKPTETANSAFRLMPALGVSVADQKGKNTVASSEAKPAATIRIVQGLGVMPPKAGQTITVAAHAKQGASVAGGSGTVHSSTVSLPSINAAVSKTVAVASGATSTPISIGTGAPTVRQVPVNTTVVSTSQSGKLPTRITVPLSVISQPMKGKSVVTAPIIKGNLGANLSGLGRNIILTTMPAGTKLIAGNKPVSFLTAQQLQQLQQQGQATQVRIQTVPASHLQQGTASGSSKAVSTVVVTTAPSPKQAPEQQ
UniProt Q6PB93: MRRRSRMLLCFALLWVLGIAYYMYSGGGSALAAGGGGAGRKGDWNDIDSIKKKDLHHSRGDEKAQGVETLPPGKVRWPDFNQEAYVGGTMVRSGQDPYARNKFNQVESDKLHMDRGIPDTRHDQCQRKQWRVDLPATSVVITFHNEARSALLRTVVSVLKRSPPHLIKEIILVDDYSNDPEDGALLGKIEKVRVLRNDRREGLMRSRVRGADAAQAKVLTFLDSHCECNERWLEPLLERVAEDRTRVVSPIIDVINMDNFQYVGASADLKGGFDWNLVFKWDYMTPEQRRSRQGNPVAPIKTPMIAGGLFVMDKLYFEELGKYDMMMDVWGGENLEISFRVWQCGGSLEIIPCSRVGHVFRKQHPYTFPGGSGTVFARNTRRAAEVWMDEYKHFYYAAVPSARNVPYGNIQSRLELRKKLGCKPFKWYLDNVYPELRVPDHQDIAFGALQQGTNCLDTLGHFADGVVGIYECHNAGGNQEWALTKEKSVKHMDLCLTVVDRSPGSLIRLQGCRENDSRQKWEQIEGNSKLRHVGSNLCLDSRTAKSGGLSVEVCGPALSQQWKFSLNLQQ
UniProt Q6P7W5: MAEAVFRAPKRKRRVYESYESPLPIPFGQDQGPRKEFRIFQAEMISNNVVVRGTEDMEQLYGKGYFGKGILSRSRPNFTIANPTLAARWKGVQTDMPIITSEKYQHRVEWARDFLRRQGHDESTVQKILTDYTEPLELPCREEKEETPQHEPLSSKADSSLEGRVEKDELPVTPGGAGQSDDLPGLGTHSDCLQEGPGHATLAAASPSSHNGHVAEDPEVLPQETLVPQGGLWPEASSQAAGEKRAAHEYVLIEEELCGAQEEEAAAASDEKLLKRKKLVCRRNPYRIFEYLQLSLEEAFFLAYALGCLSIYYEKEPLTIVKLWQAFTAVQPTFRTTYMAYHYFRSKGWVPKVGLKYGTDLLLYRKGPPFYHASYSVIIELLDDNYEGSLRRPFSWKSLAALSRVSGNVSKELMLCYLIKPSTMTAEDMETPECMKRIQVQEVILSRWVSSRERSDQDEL
UniProt Q6P5E4: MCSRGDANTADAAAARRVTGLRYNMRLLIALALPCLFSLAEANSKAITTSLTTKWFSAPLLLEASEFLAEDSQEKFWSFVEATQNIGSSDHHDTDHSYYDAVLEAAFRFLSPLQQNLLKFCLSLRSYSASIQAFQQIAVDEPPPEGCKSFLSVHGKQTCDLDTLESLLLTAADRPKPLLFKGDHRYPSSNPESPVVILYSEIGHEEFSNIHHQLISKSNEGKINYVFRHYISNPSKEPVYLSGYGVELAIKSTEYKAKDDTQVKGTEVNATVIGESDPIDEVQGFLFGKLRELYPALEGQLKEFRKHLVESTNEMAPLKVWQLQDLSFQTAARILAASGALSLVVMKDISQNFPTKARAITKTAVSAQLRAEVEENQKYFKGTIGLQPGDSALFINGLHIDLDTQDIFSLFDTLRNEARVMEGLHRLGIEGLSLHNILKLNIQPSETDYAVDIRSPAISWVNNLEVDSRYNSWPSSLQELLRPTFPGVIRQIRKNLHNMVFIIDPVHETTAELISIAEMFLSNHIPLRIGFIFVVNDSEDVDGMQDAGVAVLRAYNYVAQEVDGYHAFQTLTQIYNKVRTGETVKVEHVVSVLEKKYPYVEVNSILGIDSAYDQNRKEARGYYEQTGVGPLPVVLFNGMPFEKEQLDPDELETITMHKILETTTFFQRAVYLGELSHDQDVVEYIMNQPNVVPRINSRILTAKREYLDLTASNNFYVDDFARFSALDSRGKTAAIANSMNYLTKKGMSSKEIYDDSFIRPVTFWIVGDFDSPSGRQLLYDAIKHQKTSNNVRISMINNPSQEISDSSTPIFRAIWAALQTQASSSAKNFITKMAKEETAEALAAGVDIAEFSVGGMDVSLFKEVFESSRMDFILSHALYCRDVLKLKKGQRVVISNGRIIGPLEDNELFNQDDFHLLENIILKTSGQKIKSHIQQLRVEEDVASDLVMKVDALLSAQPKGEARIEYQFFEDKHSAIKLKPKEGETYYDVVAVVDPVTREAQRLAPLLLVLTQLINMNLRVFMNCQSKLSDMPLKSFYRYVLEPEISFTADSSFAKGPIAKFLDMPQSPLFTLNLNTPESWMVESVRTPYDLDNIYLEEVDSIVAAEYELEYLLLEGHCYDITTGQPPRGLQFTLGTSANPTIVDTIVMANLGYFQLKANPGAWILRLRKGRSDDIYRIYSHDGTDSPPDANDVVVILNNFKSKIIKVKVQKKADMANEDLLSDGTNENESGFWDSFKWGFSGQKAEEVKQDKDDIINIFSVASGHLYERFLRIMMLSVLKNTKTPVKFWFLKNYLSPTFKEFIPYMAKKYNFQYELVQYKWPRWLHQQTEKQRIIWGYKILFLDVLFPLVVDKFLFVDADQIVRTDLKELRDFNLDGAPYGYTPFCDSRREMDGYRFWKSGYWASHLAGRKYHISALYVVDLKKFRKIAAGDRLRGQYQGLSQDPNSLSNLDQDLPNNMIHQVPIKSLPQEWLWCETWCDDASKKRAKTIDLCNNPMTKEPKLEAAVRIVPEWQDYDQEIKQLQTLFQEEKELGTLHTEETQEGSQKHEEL
UniProt Q6PEV3: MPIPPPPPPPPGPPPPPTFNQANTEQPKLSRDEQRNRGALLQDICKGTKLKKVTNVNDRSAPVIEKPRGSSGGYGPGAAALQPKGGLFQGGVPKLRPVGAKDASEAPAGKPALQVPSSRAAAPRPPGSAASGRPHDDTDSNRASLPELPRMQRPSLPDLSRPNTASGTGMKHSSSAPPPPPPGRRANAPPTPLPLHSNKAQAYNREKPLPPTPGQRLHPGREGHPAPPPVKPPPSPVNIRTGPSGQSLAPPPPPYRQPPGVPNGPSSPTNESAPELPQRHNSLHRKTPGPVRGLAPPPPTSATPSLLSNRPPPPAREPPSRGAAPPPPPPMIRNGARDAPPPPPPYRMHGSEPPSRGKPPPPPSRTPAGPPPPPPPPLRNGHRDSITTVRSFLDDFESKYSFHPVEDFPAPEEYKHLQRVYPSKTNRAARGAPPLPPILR

Each target was assayed with CN[C@@H]1C[C@H]2O[C@@](C)([C@@H]1OC)n1c3ccccc3c3c4c(c5c6ccccc6n2c5c31)C(=O)NC4 [staurosporine] (assay: log2 fold change of tryptic peptide abundance, ligand vs vehicle (limited proteolysis) (log2 ratio); higher = more trypsin-susceptible (destabilized)). Details: ligand concentration: 20 uM; sample: mouse liver crude lysate; replicate design: treated separately.

Row | Target | log2 fold change
1 | UniProt Q6P8I6 (peptide sequence: AQEDEWR, peptide start residue: 82) | 0.299
2 | UniProt Q6EJB6 (peptide sequence: EMKPLTNPDASGGKK, peptide start residue: 523) | -0.321
3 | UniProt Q6AXC6 (peptide sequence: GLAGFQQFLK, peptide start residue: 527) | -0.35
4 | UniProt Q6TXD4 (peptide sequence: VVAELLQTER, peptide start residue: 787) | 0.329
5 | UniProt Q6P5C5 (peptide sequence: RALAGLTPEVQVEGLLHPSPR, peptide start residue: 225) | -0.144
6 | UniProt Q6PD24 (peptide sequence: EQEELER, peptide start residue: 579) | -0.11
7 | UniProt Q6P1G0 (peptide sequence: VQTLAGDTAR, peptide start residue: 1145) | -0.566
8 | UniProt Q6P9R4 (peptide sequence: HLGSTSSQVEEGSVSAGLPR, peptide start residue: 929) | -0.223
9 | UniProt Q6GQV7 (peptide sequence: TEHAFQLIR, peptide start residue: 1114) | 0.542
10 | UniProt Q6P5E8 (peptide sequence: AGTTEEEASKGSCPR, peptide start residue: 358) | 0.194
11 | UniProt Q6PIJ4 (peptide sequence: TADKIELGDSDLK, peptide start residue: 246) | -0.6
12 | UniProt Q6PDG8 (peptide sequence: LLGLYQYLHSR, peptide start residue: 477) | -0.537
13 | UniProt Q6PB93 (peptide sequence: HFYYAAVPSAR, peptide start residue: 393) | 0.256
14 | UniProt Q6VNB8 (peptide sequence: DTSSQPSSTSHRPR, peptide start residue: 3281) | -0.295
15 | UniProt Q6PCN7 (peptide sequence: SDTPEELRK, peptide start residue: 728) | -0.342
16 | UniProt Q6NSQ7 (peptide sequence: KHLFWEEETK, peptide start residue: 223) | 0.361
17 | UniProt Q6P7W0 (peptide sequence: KHCLAVTDSSAAQEESEPCYRR, peptide start residue: 850) | 0.794
18 | UniProt Q6DI86 (peptide sequence: HLEILGYR, peptide start residue: 788) | -0.208
19 | UniProt Q6NSR8 (peptide sequence: TVEINNTDAEGR, peptide start residue: 335) | 0.15
20 | UniProt Q6P7W5 (peptide sequence: IQVQEVILSR, peptide start residue: 438) | 0.438
21 | UniProt Q6PDG5 (peptide sequence: RGHREEEQEDLTK, peptide start residue: 329) | 0.357
22 | UniProt Q6GQT9 (peptide sequence: VQVVVPEAETR, peptide start residue: 456) | 0.193
23 | UniProt Q6P5E4 (peptide sequence: VDALLSAQPK, peptide start residue: 950) | -1.1
24 | UniProt Q6DTY7 (peptide sequence: ELTQNPLKK, peptide start residue: 6) | -0.17
25 | UniProt Q6PEV3 (peptide sequence: AAAPRPPGSAASGRPHDDTDSNR, peptide start residue: 120) | 0.477

Copied from the listing for reference:
Row | Target | log2 fold change
6 | UniProt Q6PD24 (peptide sequence: EQEELER, peptide start residue: 579) | -0.11
7 | UniProt Q6P1G0 (peptide sequence: VQTLAGDTAR, peptide start residue: 1145) | -0.566
8 | UniProt Q6P9R4 (peptide sequence: HLGSTSSQVEEGSVSAGLPR, peptide start residue: 929) | -0.223
9 | UniProt Q6GQV7 (peptide sequence: TEHAFQLIR, peptide start residue: 1114) | 0.542
